Results taken from patent US11229618B2 (Amarin Pharmaceuticals Ireland Limited, priority 2012, dated 2022).
At least one compound was matched to its structure with a doubt left.

Assay: Phase 1 multidose pharmacokinetic study: unesterified EPA in plasma (LC-MS/MS)
Assay type: in vivo
Conditions: about 2 g orally twice per day; human
Description: A study to characterize the pharmacokinetics of ethyl eicosapentaenoate in plasma and red blood cells after multiple-dose administration of IPE at 2 g per day and 4 g per day was performed in healthy adult male and female humans.
The study was a phase 1, open-label, randomized, multidose study in healthy, nonsmoking men and women aged>18 and ≤55 years with a body mass index (BMI)>18 and ≤30 kg/m′. […]
Fasting EPA concentrations were measured with a validated liquid chromatography with tandem mass spectrometry (LC-MS/MS) method in plasma and RBCs prior to the morning dose (days 1, 14, 26, 28) and at serial time points (1, 3, 5, 6, 8, 10, 12, 24, 48, 72, 120, 192, 312, and 432 hours) after the morning dose on day 28. […] In RBCs, EPA was measured in the cell membrane, where EPA is mainly incorporated in phospholipids.
For total EPA in plasma and RBCs, lipids were isolated by acid/methanol/chloroform extraction followed by centrifugation and purified by isohexane and solid-phase extraction after confirmed complete lipid hydrolysis and transmethylation (acid/methanol, 50° C. overnight). […] Quantitation utilized linolenic acid as an internal standard and EPA as the standard for the calibration curve; for total plasma EPA, RBC EPA, and unesterified EPA, the lower limits of quantitation were 10 μg/mL, 5 μg/mL, and 50 ng/mL, respectively. […]

For CC/C=C\C/C=C\C/C=C\C/C=C\C/C=C\CCCC(=O)OCC [IPE, all-cis eicosa-5,8,11,14,17-pentaenoic acid ethyl ester], the “mean plasma VZ/F of unesterified eicosapentaenoic acid” value was “about 28,200+/−10,929 L”.
